{"source": "PubChem BioAssay AID602313", "about": "(National Center for Advancing Translational Sciences (NCATS), 2012)", "note": "About 760 (0.19%) of roughly 390,000 compounds were called active. The inconclusive results got no clear call from the source; some entries with a clear call stand among them for comparison. The call rests on the fitted dose curve; in most records, active means well fitted inhibition curve with a large enough effect; inconclusive means small, poorly fitted or top-dose-only effect; inactive means flat fitted curve, though single readings scatter. A potency beside an inconclusive call is a rough fit, not a confirmed value. Potency means the concentration at half of the fitted maximal effect."}
{"assay": "qHTS for Inhibitors of Vif-A3F Interactions: qHTS; further: nearly all actives have a fitted effect of over 65% in size; on activity, negative = active: % of control where 0% means no effect", "details": "HeLa A3F-eYFP + Vif (tagged APOBEC3F with the HIV-1 protein that degrades it), YFP fluorescence increase; series mostly up to 46.1 µM; activity, negative = active: at the top concentration", "in_short": "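HeLa cells stably expressing Vif plus C-terminally eYFP-tagged A3F were seeded, incubated overnight at 37 deg C, dosed with compound, incubated overnight again at 37 deg C. Yellow fluorescence (Ex 488/Em 500-530) reported blocked Vif-mediated A3F-eYFP degradation.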"}
{"smiles": "O=C(NCc1ccccc1Br)c1cccc2c1C(=O)c1ccc(-c3ccc(OC(F)(F)F)cc3)cc1S2(=O)=O", "Potency": "inconclusive: 3.16 µM [inhibitor, single point]"}
{"smiles": "CCOC(=O)c1sc2nc(C)nc(NCCc3ccccn3)c2c1C", "activity, negative = active": "inactive: 4.22%"}
{"smiles": "CC(C)(C)OC(=O)N1CC=C2C(C#N)=C(N)C(C#N)(C#N)[C@H](c3cccnc3)[C@H]2C1", "Potency": "inconclusive: 11.2 µM [inhibitor, single point]"}
{"smiles": "O=C(CCC1N=C2c3ccccc3N=C(SCc3ccc(Cl)cc3)N2C1=O)NCc1cccs1", "note": "(stereo not given)", "Potency": "inconclusive: 2.82 µM [inhibitor, full curve, poor fit]"}
{"smiles": "O=[N+]([O-])c1c(Nc2ccccn2)cc(Cl)c2nonc12", "Potency": "inconclusive: 5.01 µM [inhibitor, full curve, poor fit]"}
{"smiles": "Cc1ccccc1Nc1nn2c(=O)c3ccc(C(=O)NCc4cccs4)cc3nc2s1", "Potency": "inconclusive: 20 µM [inhibitor, partial curve, poor fit]"}
{"smiles": "O=C(Cc1ccccc1)N/N=C/c1cc(Br)cc(Br)c1O", "Potency": "inconclusive: 5.62 µM [inhibitor, single point]"}
{"smiles": "CC(=O)N(C(C)=O)N1C(=O)C2C3c4ccccc4C(c4ccccc43)C2C1=O", "note": "(stereo not given)", "activity, negative = active": "inactive: -5.63%"}
{"smiles": "N#C/C(=N\\Nc1ccc(S(=O)(=O)N2CCCCCC2)cc1)C(N)=S", "activity, negative = active": "inactive: -2.18%"}
{"smiles": "COc1cc(C(=S)N2CCOCC2)cc(OC)c1OC(=O)c1ccccc1[N+](=O)[O-]", "Potency": "inconclusive: 3.16 µM [inhibitor, single point]"}
{"smiles": "COc1ccc(CCNC(=S)NC(=O)c2ccccc2)cc1C", "Potency": "inconclusive: 31.6 µM [inhibitor, single point]"}
{"smiles": "CCOc1ccccc1C(=O)Nc1cccc2ccccc12", "Potency": "inconclusive: 3.16 µM [inhibitor, single point]"}
{"smiles": "Cc1cccc(NC(=S)Nc2cccc(C)n2)n1", "Potency": "inconclusive: 10 µM [inhibitor, partial curve, poor fit]"}
{"smiles": "COC(=O)c1ccc(/C=C/C(=O)c2ccc(OC)c(OC)c2)cc1", "activity, negative = active": "inactive: -3.95%"}
{"smiles": "O=C(CCc1nnc(C2CCCCC2)o1)NCCCOc1cccnc1", "Potency": "inconclusive: 35.5 µM [inhibitor, single point]"}
{"smiles": "CCOc1cc(/C=C(/C#N)C(=O)Nc2ccc(O)cc2)cc(Br)c1O", "Potency": "inconclusive: 17.8 µM [inhibitor, partial curve, poor fit]"}
{"smiles": "O=C(Nc1ncccn1)c1ccc([N+](=O)[O-])o1", "Potency": "inconclusive: 7.08 µM [inhibitor, full curve, poor fit]"}
{"smiles": "O=C(Nc1nnc(Cc2c[nH]c3ccccc23)s1)c1ccc(Cl)cc1Cl", "Potency": "inconclusive: 20 µM [inhibitor, single point]"}
{"smiles": "CN1Cc2c(N3CCOCC3)nc3sc(C(=O)c4ccccc4)c(N)c3c2CC1(C)C", "activity, negative = active": "inactive: -4.04%"}
{"smiles": "COCCn1c2nc(=O)n(-c3ccccc3)c(=O)c-2nc2ccccc21", "Potency": "inconclusive: 3.16 µM [inhibitor, full curve, poor fit]"}
{"smiles": "O=C1CCCCCN1C(=O)c1ccccc1", "activity, negative = active": "inactive: -1.47%"}
{"smiles": "O=C(NC(=S)N1CCc2ccccc21)c1ccco1", "Potency": "active: 11.2 µM"}
{"smiles": "Cc1ccccc1C(=O)Nc1cccc(NC(=O)c2cccnc2)c1", "Potency": "inconclusive: 35.5 µM [inhibitor, single point]"}
{"smiles": "CCOc1cccc2sc(N(CCN(C)C)C(=O)c3ccc4c(c3)OCCO4)nc12", "Potency": "inconclusive: 35.5 µM [inhibitor, single point]"}
{"smiles": "CC[n+]1c(/C=C/Nc2ccccc2)oc2ccc(OC)cc21", "Potency": "active: 5.62 µM"}
{"smiles": "c1ccn2cc(C34CC5CC(CC(C5)C3)C4)nc2c1", "Potency": "inconclusive: 10 µM [inhibitor, partial curve, poor fit]"}
{"smiles": "COc1ccc(C(c2oc(CO)cc(=O)c2O)c2oc(CO)cc(=O)c2O)cc1", "Potency": "inconclusive: 5.62 µM [inhibitor, single point]"}
{"smiles": "COC(=O)c1sccc1S(=O)(=O)N(CC(=O)Nc1cccc(C)c1C)c1ccc(C)c(C)c1", "activity, negative = active": "inactive: 4.2%"}
{"smiles": "CN1/C(=C/c2cccc[n+]2C)Sc2ccccc21", "Potency": "inconclusive: 31.6 µM [inhibitor, single point]"}
{"smiles": "COc1ccccc1CN(C)C(=O)COC(=O)c1cc(C)oc1C", "Potency": "inconclusive: 3.98 µM [inhibitor, single point]"}
{"smiles": "CC(NC(=S)NCCCN1CCOCC1)C12CC3CC(CC(C3)C1)C2", "note": "(stereo not given)", "Potency": "inconclusive: 35.5 µM [inhibitor, single point]"}
{"smiles": "CC1=NOC(=O)/C1=C/c1ccc(O)c(Br)c1", "Potency": "inconclusive: 11.2 µM [inhibitor, partial curve, poor fit]"}
{"smiles": "C/C(=N\\NC(=S)NCc1ccccc1)c1ccc(Br)cc1", "Potency": "inconclusive: 3.55 µM [inhibitor, single point]"}
{"smiles": "Cc1ccc(C)c(NC(=S)NC2CC3CCC(C2)N3Cc2ccco2)c1", "note": "(stereo not given)", "activity, negative = active": "inactive: 2.48%"}
{"smiles": "Cc1cc([N+](=O)[O-])ccc1-c1ccc(/C=N/NC(=O)c2ccc(Br)o2)o1", "Potency": "inconclusive: 3.55 µM [inhibitor, full curve, poor fit]"}
{"smiles": "NS(=O)(=O)c1ccc(N2C(=O)C(=O)/C(=C(/O)c3ccccc3)C2c2ccc(Cl)cc2)cc1", "note": "(stereo not given)", "Potency": "inconclusive: 35.5 µM [inhibitor, single point]"}
{"smiles": "CCOc1ccc(C(C)NC(=S)NC2CCCCC2)cc1", "note": "(stereo not given)", "Potency": "inconclusive: 35.5 µM [inhibitor, single point]"}
{"smiles": "COc1ccc(C2c3ccc(O)cc3Oc3ncn4nc(-c5ccccn5)nc4c32)cc1", "note": "(stereo not given)", "Potency": "inconclusive: 35.5 µM [inhibitor, single point]"}
{"smiles": "CCOc1ccc2nc(NC(=O)c3cccc(-c4cc5ccccc5oc4=O)c3)sc2c1", "Potency": "inconclusive: 17.8 µM [inhibitor, partial curve, poor fit]"}
{"smiles": "CCN1C(=O)[C@@H]2[C@@H](c3ccc(-c4ccc(F)cc4)c(OC)c3)N3CCCC[C@@]3(C(=O)OC)[C@@H]2C1=O", "Potency": "inconclusive: 35.5 µM [inhibitor, single point]"}
{"smiles": "c1cn2cc(-c3ccc4c(c3)OCO4)nc2s1", "activity, negative = active": "inactive: -1.15%"}
{"smiles": "O=C1N=C(N2CCOCC2)S/C1=C/c1ccc(-c2ccc(F)cc2)o1", "Potency": "inconclusive: 11.2 µM [inhibitor, single point]"}
{"smiles": "CC1CCCCC1NC(=O)/C(C#N)=C/C=C/c1ccccc1[N+](=O)[O-]", "note": "(stereo not given)", "Potency": "inconclusive: 3.55 µM [inhibitor, single point]"}
{"smiles": "COC(=O)c1ccc(OCC(O)CN2C(=O)NC(C)(C)C2=O)cc1", "note": "(stereo not given)", "activity, negative = active": "inactive: 5.49%"}
{"smiles": "Cc1cccc(N2CCN(C(=O)Cn3c(-c4cccs4)cc4ccccc43)CC2)c1C", "activity, negative = active": "inactive: -1.73%"}
{"smiles": "CC(/C=C/c1ccco1)=N/NC(=O)C1COc2ccccc2O1", "note": "(stereo not given)", "Potency": "inconclusive: 35.5 µM [inhibitor, single point]"}
{"smiles": "CN1C(=O)C2(c3ccccc31)N(c1cccc(C(F)(F)F)c1)C(=O)CS2(=O)=O", "note": "(stereo not given)", "activity, negative = active": "inactive: 5.11%"}
{"smiles": "COc1cc(C(=O)NNC(=O)c2ccc(NC(C)=O)cc2)cc(OC)c1OC", "activity, negative = active": "inactive: -9.44%"}
{"smiles": "CNC(=O)c1c(NC(=O)c2ccc(S(=O)(=O)N(C)c3ccccc3)cc2)sc2c1CCN(C(C)C)C2", "Potency": "active: 7.08 µM"}
{"smiles": "CC1CC(C)(C)n2c(O)c(N=NC(N)=S)c3cccc1c32", "note": "(stereo not given)", "Potency": "inconclusive: 17.8 µM [inhibitor, partial curve, poor fit]"}
{"smiles": "C/C(=N\\NC(=S)NC(C)C)c1ccc(Cl)s1", "Potency": "inconclusive: 2.51 µM [inhibitor, partial curve, poor fit]"}
{"smiles": "CC(=O)c1ccc(S(=O)(=O)N(C)CCCC(=O)NCc2ccc3c(c2)OCO3)cc1", "activity, negative = active": "inactive: 3.73%"}
{"smiles": "O=C(COc1ccc([N+](=O)[O-])cc1)Nc1cccc2nsnc12", "Potency": "inconclusive: 35.5 µM [inhibitor, single point]"}
{"smiles": "CCOc1ccc(Cn2c3ccc(OC)cc3c3nc4ccccc4nc32)cc1", "Potency": "active: 11.2 µM"}
{"smiles": "CC1=CC(=C2N=C(c3ccccc3)OC2=O)C=C(C)O1", "Potency": "inconclusive: 28.2 µM [inhibitor, single point]"}
{"smiles": "COc1ccc(NC(=O)N2C3CCCC2CC(NC(=O)c2ccccc2)C3)cc1", "note": "(stereo not given)", "Potency": "inconclusive: 11.2 µM [inhibitor, partial curve, poor fit]"}
{"smiles": "COc1ccc(CNCC(O)(c2ccc(Cl)cc2)c2ccc(Cl)cc2)cc1", "Potency": "inconclusive: 14.1 µM [inhibitor, partial curve, poor fit]"}
{"smiles": "O=C(c1ccccc1)[C@@H]1[C@@H](C(=O)c2ccc(F)cc2)[C@@]2(C(=O)Nc3ccccc32)[C@H]2c3ccccc3C=CN12", "Potency": "inconclusive: 35.5 µM [inhibitor, single point]"}
{"smiles": "COC(=O)c1c(NC(=O)c2ccc(S(=O)(=O)N(C)C3CCCCC3)cc2)sc2c1CCN(C)C2", "Potency": "inconclusive: 35.5 µM [inhibitor, single point]"}
{"smiles": "Cc1cc(C(=O)NCCCn2ccnc2)sc1-c1ccccc1", "Potency": "inconclusive: 7.08 µM [inhibitor, full curve, poor fit]"}
{"smiles": "O=C(C1=C[C@H](c2ccc(C(F)(F)F)cc2)C[C@H](OCc2ccc(CO)cc2)O1)N1CCN(Cc2ccccc2)CC1", "Potency": "inconclusive: 35.5 µM [inhibitor, single point]"}
{"smiles": "NNC(=O)c1cc2nc(-c3cccs3)cc(C(F)(F)F)n2n1", "Potency": "inconclusive: 20 µM [inhibitor, single point]"}
{"smiles": "COc1ccc2c(C)cc(SCC(=O)NC3CCCCC3)nc2c1", "Potency": "inconclusive: 35.5 µM [inhibitor, partial curve, poor fit]"}
{"smiles": "COc1ccc(Nc2nc(NN)nc(Nc3ccc(OC)cc3)n2)cc1", "Potency": "inconclusive: 35.5 µM [inhibitor, single point]"}
{"smiles": "CC(=O)c1cccc(OCc2cc(C(=O)N(C)CCc3ccccn3)no2)c1", "activity, negative = active": "inactive: 1.58%"}
